# Assay results published in the supplement of paper PMC8728848.
# The other results are listed elsewhere or left out.
# B1: PP2A1 (Arabidopsis thaliana) (protein)
# chain: MFRNQDSKYLIPVQKEAPPVTTLPMKASTVKSPHNCEAILRDADPPISLSSVNLSEQLRSGVFLKPKKQIKYWVDERNSNCFMLFAKNLSITWSDDVNYWTWFTEKESPNENVEAVGLKNVCWLDITGKFDTRNLTPGIVYEVVFKVKLEDPAYGWDTPVNLKLVLPNGKEKPQEKKVSLRELPRYKWVDVRVGEFVPEKSAAGEITFSMYEHAAGVWKKGLSLKGVAIRPKQHHHHHH
# Columns and labels:
# Test in all cases: glycan array binding signal (z-score within array); higher = stronger binding
# Conditions in all cases: glycan notation: IUPAC condensed, linker removed
# [1] = target: Neu5Ac(a2-6)Gal(b1-4)GlcNAc(b1-2)Man(a1-3)[GlcNAc(b1-2)Man(b1-4)GlcNAc(b1-2)Man(a1-6)]Man(b1-4)GlcNAc(b1-4)GlcNAc
# Outline: (§1)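 The binding signal is a Z-score computed within each array and averaged over linkers. Arrays of the same protein sequence at different concentrations or buffers were also averaged together. Data originate from 3228 arrays in the Consortium for Functional Glycomics database, kept only where the protein sequence was available.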
# [2] = target: Neu5Ac(a2-6)Gal(b1-4)GlcNAc(b1-2)Man(a1-3)[Man(a1-6)]Man(b1-4)GlcNAc(b1-4)GlcNAc
# Outline: as §1
# [3] = target: Neu5Ac(a2-6)Gal(b1-4)GlcNAc(b1-2)Man(a1-3)[Neu5Ac(a2-6)Gal(b1-4)GlcNAc(b1-2)Man(a1-6)]Man(b1-4)GlcNAc(b1-4)GlcNAc
# Outline: as §1
# [4] = target: Neu5Ac(a2-6)Gal(b1-4)GlcNAc(b1-2)Man(a1-6)Man(b1-4)GlcNAc(b1-4)GlcNAc
# Outline: as §1
# [5] = target: Neu5Ac(a2-6)Gal(b1-4)GlcNAc(b1-2)Man(a1-6)[Gal(b1-4)GlcNAc(b1-2)Man(a1-3)]Man(b1-4)GlcNAc(b1-4)GlcNAc
# Outline: as §1
# [6] = target: Neu5Ac(a2-6)Gal(b1-4)GlcNAc(b1-2)Man(a1-6)[GlcNAc(b1-2)Man(a1-3)]Man(b1-4)GlcNAc(b1-4)GlcNAc
# Outline: as §1
# [7] = target: Neu5Ac(a2-6)Gal(b1-4)GlcNAc(b1-2)Man(a1-6)[Man(a1-3)]Man(b1-4)GlcNAc(b1-4)GlcNAc
# Outline: as §1
# [8] = target: Neu5Ac(a2-6)Gal(b1-4)GlcNAc(b1-3)Gal(b1-3)GlcNAc
# Outline: as §1
# [9] = target: Neu5Ac(a2-6)Gal(b1-4)GlcNAc(b1-3)Gal(b1-4)GlcNAc
# Outline: as §1
# [10] = target: Neu5Ac(a2-6)Gal(b1-4)GlcNAc(b1-3)Gal(b1-4)GlcNAc(b1-3)Gal(b1-4)GlcNAc
# Outline: as §1
# [11] = target: Neu5Ac(a2-6)Gal(b1-4)GlcNAc(b1-3)Gal(b1-4)[Fuc(a1-3)]GlcNAc(b1-3)Gal(b1-4)[Fuc(a1-3)]GlcNAc
# Outline: as §1
# [12] = target: Neu5Ac(a2-6)Gal(b1-4)GlcNAc(b1-3)GalNAc
# Outline: as §1
# [13] = target: Neu5Ac(a2-6)Gal(b1-4)GlcNAc6S
# Outline: as §1
# Neu5Ac(a2-6)GalNAc = target: Neu5Ac(a2-6)GalNAc
# Outline: as §1
# [14] = target: Neu5Ac(a2-6)GalNAc(b1-4)GlcNAc
# Outline: as §1
# [15] = target: Neu5Ac(a2-6)GlcNAc(b1-4)GlcNAc
# Outline: as §1
# [16] = target: Neu5Ac(a2-6)GlcNAc(b1-4)GlcNAc(b1-4)GlcNAc
# Outline: as §1
# Neu5Ac(a2-8)Neu5Ac = target: Neu5Ac(a2-8)Neu5Ac
# Outline: as §1
# [17] = target: Neu5Ac(a2-8)Neu5Ac(a2-3)Gal(b1-4)Glc
# Outline: as §1
# [18] = target: Neu5Ac(a2-8)Neu5Ac(a2-3)[GalNAc(b1-4)]Gal(b1-4)Glc
# Outline: as §1
# [19] = target: Neu5Ac(a2-8)Neu5Ac(a2-8)Neu5Ac
# Outline: as §1
# [20] = target: Neu5Ac(a2-8)Neu5Ac(a2-8)Neu5Ac(a2-3)Gal(b1-4)Glc
# Outline: as §1
# [21] = target: Neu5Ac(a2-8)Neu5Ac(a2-8)Neu5Ac(a2-3)[GalNAc(b1-4)]Gal(b1-4)Glc
# Outline: as §1
# [22] = target: Neu5Ac(a2-8)Neu5Ac(a2-8)Neu5Ac(a2-8)Neu5Ac(a2-3)[GalNAc(b1-4)]Gal(b1-4)Glc
# Outline: as §1
# [23] = target: Neu5Ac(b2-6)Gal(b1-4)GlcNAc
# Outline: as §1
# Neu5Ac(b2-6)GalNAc = target: Neu5Ac(b2-6)GalNAc
# Outline: as §1
# [24] = target: Neu5Ac9Ac(a2-3)Gal(b1-3)GlcNAc
# Outline: as §1
# [25] = target: Neu5Ac9Ac(a2-3)Gal(b1-4)GlcNAc
# Outline: as §1
# [26] = target: Neu5Ac9Ac(a2-6)Gal(b1-4)GlcNAc
# Outline: as §1
# [27] = target: Neu5Gc(a2-3)Gal(b1-3)GlcNAc
# Outline: as §1
# [28] = target: Neu5Gc(a2-3)Gal(b1-3)[Fuc(a1-4)]GlcNAc
# Outline: as §1
# Neu5Gc(a2-3)Gal(b1-4)Glc = target: Neu5Gc(a2-3)Gal(b1-4)Glc
# Outline: as §1
# [29] = target: Neu5Gc(a2-3)Gal(b1-4)GlcNAc
# Outline: as §1
# [30] = target: Neu5Gc(a2-3)Gal(b1-4)[Fuc(a1-3)]GlcNAc
# Outline: as §1
# [31] = target: Neu5Gc(a2-6)Gal(b1-4)GlcNAc
# Outline: as §1
# Neu5Gc(a2-6)GalNAc = target: Neu5Gc(a2-6)GalNAc
# Outline: as §1
# [32] = target: Neu5Gc(b2-6)Gal(b1-4)GlcNAc
# Outline: as §1
binder,measurement,setting,value
B1,glycan array binding signal (z-score),[1],0.772
same,glycan array binding signal (z-score),[2],2.57
same,glycan array binding signal (z-score),[3],1.13
same,glycan array binding signal (z-score),[4],0.155
same,glycan array binding signal (z-score),[5],0.37
same,glycan array binding signal (z-score),[6],0.372
same,glycan array binding signal (z-score),[7],0.225
same,glycan array binding signal (z-score),[8],-0.355
same,glycan array binding signal (z-score),[9],-0.311
same,glycan array binding signal (z-score),[10],-0.134
same,glycan array binding signal (z-score),[11],-0.301
same,glycan array binding signal (z-score),[12],0.09
same,glycan array binding signal (z-score),[13],0.408
same,glycan array binding signal (z-score),Neu5Ac(a2-6)GalNAc,-0.519
same,glycan array binding signal (z-score),[14],-0.478
same,glycan array binding signal (z-score),[15],0.23
same,glycan array binding signal (z-score),[16],-0.689
same,glycan array binding signal (z-score),Neu5Ac(a2-8)Neu5Ac,-0.408
same,glycan array binding signal (z-score),[17],-0.364
same,glycan array binding signal (z-score),[18],0.265
same,glycan array binding signal (z-score),[19],-0.255
same,glycan array binding signal (z-score),[20],0.006
same,glycan array binding signal (z-score),[21],0.401
same,glycan array binding signal (z-score),[22],-0.313
same,glycan array binding signal (z-score),[23],0.16
same,glycan array binding signal (z-score),Neu5Ac(b2-6)GalNAc,-0.506
same,glycan array binding signal (z-score),[24],-0.408
same,glycan array binding signal (z-score),[25],0.133
same,glycan array binding signal (z-score),[26],-0.487
same,glycan array binding signal (z-score),[27],-0.251
same,glycan array binding signal (z-score),[28],-0.18
same,glycan array binding signal (z-score),Neu5Gc(a2-3)Gal(b1-4)Glc,0.177
same,glycan array binding signal (z-score),[29],-0.079
same,glycan array binding signal (z-score),[30],-0.274
same,glycan array binding signal (z-score),[31],-0.392
same,glycan array binding signal (z-score),Neu5Gc(a2-6)GalNAc,-0.153
same,glycan array binding signal (z-score),[32],-0.545

# Another view of some results above:
binder	measurement	setting	value
B1	glycan array binding signal (z-score)	[10]	-0.134
same	glycan array binding signal (z-score)	[19]	-0.255
